No end group written: not given here. *: point of attachment. Palmitoyl = CCCCCCCCCCCCCCCC(=O)*
Assay: general procedure: Fmoc solid-phase peptide synthesis; Rink amide MBHA resin; HBTU/DIEA
Settings: whole synthesis, absorbance at 220 nm

Substance	final purity (method not given) [%]
Palmitoyl-VVVAAAEEEMQMKKVLDS	>95
Palmitoyl-VVVAAAEEE	>95
